The whole screen tested about 330,000 compounds, of which about 7,700 (2.3%) were called active. This list was built around the results that the source calls inconclusive (neither active nor inactive); the mix of calls is not that of the screen. Calls come from the whole dose curve; as a rule, active = well fitted inhibition curve with a large enough effect; inconclusive = small, poorly fitted or top-dose-only effect, or effect the other way; inactive = flat fitted curve, though single readings scatter. A potency beside an inconclusive call is a rough fit, not a confirmed value.
test: qHTS screen for small molecules that inhibit ELG1-dependent DNA repair in human embryonic kidney (HEK293T) cells expressing luciferase-tagged ELG1; conditions: HEK293T ELG1-luciferase reporter, luminescence, 16 h, DNA damage induced by 5-fluorouridine; activity change, negative = inhibition: at 46.1 µM (top of the series); note: nearly all actives have a fitted effect of over 55% in size
Summary of the method: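 In this reporter screen, reduction of luminescence relative to DMSO vehicle indicated activity. Compounds and 5-fluorouridine were added together to 2,000 cells per well, incubated for 16 hr at 37 °C, then developed with ONE-Glo.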
% is set by controls: 0 for no effect and ±100 for the full control effect; potency is the fitted concentration of half-maximal effect.

Row | SMILES | Potency | activity change, negative = inhibition
1 | COc1cc(CCC(=O)Nc2cccc(S(=O)(=O)N(C)C)c2)cc(OC)c1OC | inconclusive: 25.9 µM [inhibitor, single point] | –
2 | O=C(Cc1ccc2cccnc2c1)c1ccc(O)cc1O | inconclusive: 11.6 µM [activator, partial curve] | –
3 | Cc1ccc(-c2nc3ccsc3c(=O)[nH]2)cc1 | inconclusive: 9.2 µM [activator, partial curve] | –
4 | CCn1c2ccccc2c2cc(NC(=S)N3CCOCC3)ccc21 | inconclusive: 20.6 µM [inhibitor, partial curve] | –
5 | Cc1cc(NC(=S)NC(=O)c2ccco2)c2ccccc2n1 | inconclusive: 16.4 µM [inhibitor, single point] | –
6 | Cc1cc(NCc2ccco2)n2c(nc3ccccc32)c1C#N | inconclusive: 20.6 µM [inhibitor, single point] | –
7 | O=C(COC(=O)c1ccccc1Sc1ccc(C(F)(F)F)cc1[N+](=O)[O-])NC(=O)NC1CCCC1 | inconclusive: 29.1 µM [inhibitor, single point] | –
8 | COCCCNC(=O)C(C#N)c1nc2ccccc2nc1N1CCCC1 (stereo not drawn) | active: 20.6 µM | –
9 | CCCCn1c(SCC(=O)Nc2cc(C)on2)nc2cc(S(N)(=O)=O)ccc21 | inactive | –
10 | N/C(=N\OC(=O)CCC1CCCCC1)c1ccccn1 | inconclusive: 7.31 µM [activator, single point] | –
11 | COc1ccccc1N1CCN(/N=C/C=C\c2ccco2)CC1 | inconclusive: 25.9 µM [activator, single point] | –
12 | CCSc1nc2sc3c(c2c(=O)n1-c1ccccc1C)CCN(C)C3 | inactive | –
13 | Cc1nc2c3cnn(-c4ccccc4)c3ncn2n1 | inconclusive: 10.3 µM [activator, partial curve, poor fit] | –
14 | COc1ccc(S(=O)(=O)N2CCOCC2)cc1NC(=O)COc1cccnc1[N+](=O)[O-] | – | inconclusive: 102% [activator]
15 | Cc1ccc2nc(/C(C#N)=C\c3ccc(N4CCOCC4)o3)[nH]c2c1 | inconclusive: 2.31 µM [activator, partial curve] | –
16 | COc1ccc(-c2cc(C(=O)Nc3cc(C)nn3-c3ccccc3)no2)cc1 | inactive | –
17 | Cn1c(=O)oc2cc(S(=O)(=O)N3CCN(c4cccc(Cl)c4)CC3)ccc21 | inconclusive: 23.1 µM [activator, single point] | –
18 | COc1ccc(CNC(=O)CN2C(=O)NC(C)(c3cccc4ccccc34)C2=O)cc1OC (stereo not drawn) | inactive | –
19 | CC(C)[C@H](NC(=O)c1ccc([N+](=O)[O-])cc1Cl)C(=O)N1CCN(C/C=C/c2ccccc2)CC1 | active: 13 µM | –
20 | CCN(C(=O)CSc1nc2nc(C)cc(C)n2n1)c1cccc(C)c1 | inactive | –
21 | CCCN(CCC)Cc1c(C(=O)N/N=C/c2ccsc2)nnn1-c1nonc1N | inactive | –
22 | O/C(=C\c1nc2ccccc2[nH]1)c1cccs1 | inconclusive: 18.3 µM [activator, partial curve] | –
23 | CCOC(=O)c1c(-c2ccc(-c3ccccc3)cc2)csc1NC(=O)CNCCN(C)C | inactive | –

Row | SMILES | Potency | activity change, negative = inhibition
24 | COCCCNC(=O)Cn1nnc(-c2ccc(NC(=O)c3cccnc3)cc2)n1 | inconclusive: 20.6 µM [inhibitor, single point] | –
25 | O=C(/C=C/c1ccco1)N(Cc1ccccc1F)C1CCS(=O)(=O)C1 (stereo not drawn) | inactive | –
26 | Cc1ccc(C(=O)Nc2ccccc2C(=O)NCc2ccco2)cc1S(=O)(=O)N1CCCCC1 | active: 11.6 µM | –
27 | COCCn1c(SCC(=O)Nc2sc(C)c(C)c2C#N)nnc1-c1ccc(OC)cc1 | inconclusive: 23.1 µM [inhibitor, partial curve] | –
28 | CCOc1ccc(CCNC(=O)COC(=O)c2ccc(C)c([N+](=O)[O-])c2)cc1OCC | inactive | –
29 | CC1CC(C)CN(CCCNC(=O)Cn2ncc3c([nH]c4ccccc43)c2=O)C1 (stereo not drawn) | inconclusive: 23.1 µM [activator, single point] | –
30 | Cc1oc(-c2ccc(Cl)cc2)nc1CN1CCC(C(=O)NCCCN2CCCC2=O)CC1 | inconclusive: 11.6 µM [inhibitor, partial curve] | –
31 | CC(=O)Nc1cc(NC(C)=O)c(N=Nc2ccccc2)cc1C | inconclusive: 29.1 µM [activator, single point] | –
32 | CC(C)(Oc1ccc(Cl)cc1)C(=O)NCCN1C(=O)S/C(=C/c2cccnc2)C1=O | inconclusive: 32.6 µM [inhibitor, single point] | –
33 | N=c1oc2ccccc2cc1C(=O)Nc1cccc(F)c1 | inconclusive: 4.61 µM [activator, partial curve] | –
34 | COc1ccc(-c2csc3ncnc(N4CCN(S(=O)(=O)c5ccc(C(C)=O)cc5)CC4)c23)cc1 | inconclusive: 13 µM [inhibitor, single point] | –
35 | CCC(=O)N1CCN(c2ccc(NC(=S)NC(=O)c3ccc(OC)c([N+](=O)[O-])c3)cc2)CC1 | inconclusive: 25.9 µM [inhibitor, single point] | –
36 | Cc1ccc(-n2cc(C(C)(C)C)[nH]c2=S)cc1 | inconclusive: 8.2 µM [activator, single point] | –
37 | O=C(NCc1ccc2c(c1)OCO2)c1cc(-c2ccccc2)c(N2CCOCC2)s1 | active: 18.3 µM | –
38 | O=C(O/N=C\c1ccc(N2CCCCC2)c([N+](=O)[O-])c1)c1ccc(Cl)cc1Cl | inactive | –
39 | CC(C(=O)NCc1ccccc1)n1cc([N+](=O)[O-])cn1 (stereo not drawn) | inactive | –
40 | COc1ccc(NC(=O)c2nc3nccc(C)n3n2)cn1 | inconclusive: 18.4 µM [activator, partial curve] | –
41 | O=C(CSc1ccc(-c2cccc([N+](=O)[O-])c2)nn1)N1CCCC1 | inconclusive: 23.1 µM [inhibitor, single point] | –
42 | CN(C)S(=O)(=O)c1ccc(C(=O)Nc2ccc(F)cc2F)cc1 | inactive | –
43 | CC(C)(C)c1ccc(C(=O)NCc2ccccc2)cc1 | inconclusive: 20.6 µM [activator, partial curve] | –
44 | COCCNC(=O)c1ccc2c(c1)ncn2-c1cccc(C)c1 | inactive | –
45 | CN(C)CC(C)(C)CNC(=S)NCc1ccc2c(c1)OCO2 | inactive | –
46 | O=C(CCCOc1ccc(Cl)cc1Cl)Nc1ccccn1 | inconclusive: 20.6 µM [activator, partial curve] | –

Row | SMILES | Potency | activity change, negative = inhibition
47 | O=C(Nc1ccc(Br)cc1)Nc1ccccc1F | inconclusive: 3.26 µM [activator, full curve] | –
48 | COC(=O)N/N=C(\C)c1ccc(OC(F)F)cc1 | inconclusive: 29.1 µM [activator, single point] | –
49 | O=C(O)CCCN1C(=O)/C(=C\c2ccc(-c3nc4ccccc4s3)o2)SC1=S | inconclusive: 13 µM [activator, partial curve] | –
50 | OC[C@H]1O[C@H](OC[C@H]2O[C@H](OC[C@H]3O[C@H](O[C@]4(CO)O[C@H](CO)[C@@H](O)[C@@H]4O)[C@H](O)[C@@H](O)[C@@H]3O)[C@H](O)[C@@H](O)[C@H]2O)[C@H](O)[C@@H](O)[C@H]1O | inactive | –
51 | O=C(N1CCN(CCO)CC1)N1c2ccccc2CCc2ccccc21 | inconclusive: 29.1 µM [activator, single point] | –
52 | CCC1(c2ccccc2)NC(=O)N(CC(=O)Nc2cc(Cl)ccc2N2CCOCC2)C1=O (stereo not drawn) | inconclusive: 1.3 µM [activator, single point] | –
53 | O=C(N/N=C/c1cc2ccccc2nc1Cl)[C@H]1C[C@@H]1c1ccccc1 | inconclusive: 20.6 µM [inhibitor, single point] | –
54 | N#Cc1c(Nc2ccccc2C(F)(F)F)s[nH]c1=O | inactive | –
55 | COc1cccc(/C=N/n2c(N)nc3ccccc32)c1OC | inconclusive: 4.61 µM [activator, full curve] | –
56 | CCC(Oc1ccccc1)C(=O)N1CCC(C(N)=O)CC1 (stereo not drawn) | inconclusive: 10 µM [activator, single point] | –
57 | COc1ccc(-c2cc(C(=O)NN)n(-c3ccccc3)n2)cc1 | inconclusive: 20.6 µM [activator, partial curve, poor fit] | –
58 | COC(=O)C1=C(C(=O)OC)[C@@H]2N(C)c3ccc(OC)cc3[C@@]23C[C@@H](C(=O)OC)N(C(=O)c2ccc(Br)cc2)C3=N1 | inconclusive: 29.1 µM [inhibitor, single point] | –
59 | CC(CCc1ccccc1)NC(=O)C1CCN(S(=O)(=O)N2CCCCC2)CC1 (stereo not drawn) | inconclusive: 4.11 µM [inhibitor, single point] | –
60 | COC(=O)c1c(NC(=O)CN(C)CC(=O)Nc2ccc(C)cc2)sc2c1CCC(C)C2 (stereo not drawn) | inconclusive: 1.16 µM [inhibitor, single point] | –
61 | CC(OC(=O)c1ccc(NS(=O)(=O)c2ccc3[nH]c(=O)[nH]c3c2)cc1)C(=O)Nc1cccc(Cl)c1Cl (stereo not drawn) | inconclusive: 32.6 µM [inhibitor, single point] | –
62 | CCCCOC(=O)c1ccc(-c2ccc(/C=N/NC(=S)NCC)o2)cc1 | inconclusive: 23.1 µM [activator, single point] | –
63 | COc1c(OC)c(O)c2c(=O)cc(-c3c(O)cccc3O)oc2c1OC | inconclusive: 29.1 µM [activator, single point] | –
64 | COc1ccccc1NC(=O)/C(C#N)=C/c1ccc(OCCN2CCOCC2)c(OC)c1 | inconclusive: 11.6 µM [activator, partial curve] | –
65 | O=C(COC(=O)c1ccco1)Nc1nc2c(F)c(F)c(F)cc2s1 | inactive | –
66 | Cc1nc2nc(SCc3ccccc3)[nH]n2c(=O)c1CCC(C)C | inactive | –
67 | CCCNC(=O)Nc1nc2ccccc2s1 | inconclusive: 9.2 µM [activator, partial curve] | –
68 | O=C(CSCc1ccc(Cl)cc1)c1ccco1 | inconclusive: 23.1 µM [activator, partial curve, poor fit] | –

Whole records from above. Values in the order: Potency	activity change, negative = inhibition
`O=C(Nc1ccc(Br)cc1)Nc1ccccc1F` is listed as inconclusive: 3.26 µM [activator, full curve]	–
`O=C(COC(=O)c1ccco1)Nc1nc2c(F)c(F)c(F)cc2s1` is listed as inactive	–
`CCC(Oc1ccccc1)C(=O)N1CCC(C(N)=O)CC1` (stereo not drawn) is listed as inconclusive: 10 µM [activator, single point]	–
`Cc1nc2nc(SCc3ccccc3)[nH]n2c(=O)c1CCC(C)C` is listed as inactive	–
